Measurements reported in PubChem BioAssay AID504784 (Drosophila RNAi Screening Center, 2011).

Screen: 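Search for regulators of lipid droplet storage in oleate-fed fly cells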 (primary screen)
Cells: Drosophila Kc167 embryonic cells
Knock-down reagent: long dsRNA against Drosophila genes, about 250 ng dsRNA per well
Duration: 4 days
Treatment: cells fed 400 µM oleic acid bound to BSA
Measurement: 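Cells imaged and segmented; ratio of lipid droplet area to nuclear area, log-transformed, then normalised as a B-score over the screen; higher means more stored lipid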
Direction: droplet/nuclear area B-score: higher = more stored lipid (overstorage)
The screen tested about 17,000 reagents; this is a random part of those with a known target gene and a result. 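Each column is one replicate's B-score; the combined score over replicates was not deposited, so single values may mislead.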 Not all columns of the deposit are shown.

Knock-down of CG10866 [DRSC08171] gave: droplet/nuclear area B-score, replicate 1 = -0.707.
With knock-down of M7BP [DRSC05932], the screen gave droplet/nuclear area B-score, replicate 1 = 1.55.
After knock-down of Bet1 [DRSC10088] the results were droplet/nuclear area B-score, replicate 1 = 0.905.
Depletion of CG9016 [DRSC03127] gave: droplet/nuclear area B-score, replicate 1 = 1.38.
Silencing of CG14443 [DRSC17936] gave: droplet/nuclear area B-score, replicate 1 = 2.25.
For Gr58b [DRSC04140], the entry reads droplet/nuclear area B-score, replicate 1 = 1.95.
Depletion of CG15042 [DRSC19618] resulted in: droplet/nuclear area B-score, replicate 1 = -0.377.
With knock-down of CG9646 [DRSC07342], the record shows droplet/nuclear area B-score, replicate 1 = -0.243.
With knock-down of Mtp [DRSC03216] the results were droplet/nuclear area B-score, replicate 1 = -0.191.
CG4744 [DRSC06887] scored droplet/nuclear area B-score, replicate 1 = -1.24.
After knock-down of Gr22f [DRSC00076], the screen gave droplet/nuclear area B-score, replicate 1 = 2.
With knock-down of c-cup [DRSC00458], the screen gave droplet/nuclear area B-score, replicate 1 = 0.0375.
Ugt37D1 [DRSC02645] showed droplet/nuclear area B-score, replicate 1 = -0.698.
CG30116 [DRSC05935] showed droplet/nuclear area B-score, replicate 1 = 0.325.
For CG30116 [DRSC06685], the values are droplet/nuclear area B-score, replicate 1 = 0.995.

2 entries from above in another layout.
CG14443 [DRSC17936]
- droplet/nuclear area B-score, replicate 1: 2.25

Gr58b [DRSC04140]
- droplet/nuclear area B-score, replicate 1: 1.95

The listing continues.
Against Rab35 [DRSC20691] the deposit lists droplet/nuclear area B-score, replicate 1 = -0.00892.
Against CG44098 [DRSC12214], the values are droplet/nuclear area B-score, replicate 1 = -1.59.
With knock-down of CG44098 [DRSC12327], the record shows droplet/nuclear area B-score, replicate 1 = 0.35.
After knock-down of Galphai [DRSC11168], the screen gave droplet/nuclear area B-score, replicate 1 = 0.369.
Against CG10904 [DRSC04084], the values are droplet/nuclear area B-score, replicate 1 = -0.528.
With knock-down of CG32462 [DRSC11851], the screen gave droplet/nuclear area B-score, replicate 1 = 0.515.
Silencing of CG17202 [DRSC15194] came out at: droplet/nuclear area B-score, replicate 1 = 2.11.
Against CG17202 [DRSC23073], the entry reads droplet/nuclear area B-score, replicate 1 = 2.4.
With knock-down of Elal [DRSC16662], the screen gave droplet/nuclear area B-score, replicate 1 = 0.499.
With knock-down of ksh [DRSC19554], the record shows droplet/nuclear area B-score, replicate 1 = -0.769.
Silencing of Ald2 [DRSC15799] came out at: droplet/nuclear area B-score, replicate 1 = -0.843.
Knock-down of Notum [DRSC09959] resulted in: droplet/nuclear area B-score, replicate 1 = 1.86.
With knock-down of CG3062 [DRSC18572] the results were droplet/nuclear area B-score, replicate 1 = 0.658.
After knock-down of pall [DRSC10364], the record shows droplet/nuclear area B-score, replicate 1 = 0.614.
CG11127 [DRSC06043] gave droplet/nuclear area B-score, replicate 1 = 2.82.
Knock-down of Or9a [DRSC18692] gave: droplet/nuclear area B-score, replicate 1 = -0.677.
With knock-down of CG12923 [DRSC06237] the results were droplet/nuclear area B-score, replicate 1 = -0.647.
With knock-down of CG14949 [DRSC08408], the screen gave droplet/nuclear area B-score, replicate 1 = 1.56.
With knock-down of CG9577 [DRSC20693] the results were droplet/nuclear area B-score, replicate 1 = 0.52.
Depletion of prel [DRSC07271] resulted in: droplet/nuclear area B-score, replicate 1 = 0.00239.
Against CG32195 [DRSC09533], the entry reads droplet/nuclear area B-score, replicate 1 = -1.09.
Depletion of Est-P [DRSC11163] resulted in: droplet/nuclear area B-score, replicate 1 = 0.00404.
Depletion of Calr [DRSC16614] resulted in: droplet/nuclear area B-score, replicate 1 = 3.83.
Against CG6345 [DRSC16024], the values are droplet/nuclear area B-score, replicate 1 = 0.679.
After knock-down of mthl12 [DRSC12964], the screen gave droplet/nuclear area B-score, replicate 1 = -1.34.
